PubChem BioAssay AID1224830 | NIAID | 2016

- Aim: 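Genes whose knock-down alters the TNF-alpha reporter response to LPS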 (primary screen)
- System: human THP-1 monocytic leukaemia cells, TNF dual-luciferase reporter clone, PMA-differentiated to macrophage-like cells
- Knock-down reagent: siRNA pool against human genes, 50 nM
- Timing: LPS for 4 h, given about 3 days after siRNA transfection
- Conditions: bacterial LPS (TLR4 ligand), 10 ng/ml
- Read-out: 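TNF firefly reporter luminescence divided by renilla, normalised to the plate median, then turned into a robust z-score for each replicate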
- Direction: TNF reporter robust z-score: higher = stronger TNF reporter response to LPS
- Rule for the call: 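Each well counts as active if its z-score is over 2.8 or under -1.5; controls are left without a call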
Shown is one part, drawn at random, of about 18,000 deposited reagents. About 2,900 of all reagents (16%) were called active. 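Calls are made per well; low scores hint the gene aids the LPS response, high scores that it dampens it.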 Repeated entries: four replicate wells of each siRNA pool.

no.	Gene	TNF reporter robust z-score	Call
1	ZNF81	2.09	inactive
2	ZNF81	0.36	inactive
3	ZNF81	-1.51	active
4	ZNF81	0	inactive
5	PDLIM7	-0.28	inactive
6	PDLIM7	-0.79	inactive
7	PDLIM7	-1.27	inactive
8	PDLIM7	-1.57	active
9	SPHKAP	2.51	inactive
10	SPHKAP	2.97	active
11	SPHKAP	1.68	inactive
12	SPHKAP	2.96	active
13	AVP	1.76	inactive
14	AVP	3.61	active
15	AVP	5.16	active
16	AVP	2.56	inactive
17	RHD	0	inactive
18	RHD	0.23	inactive
19	RHD	1.17	inactive
20	RHD	0.28	inactive
21	BTN1A1	0.43	inactive
22	BTN1A1	0.77	inactive
23	BTN1A1	1.45	inactive
24	BTN1A1	0.23	inactive
25	KIF14	1.55	inactive
26	KIF14	2.36	inactive
27	KIF14	2.61	inactive
28	KIF14	2.2	inactive
29	ZNF610	-0.6	inactive
30	ZNF610	-0.63	inactive
31	ZNF610	-0.79	inactive
32	ZNF610	-0.05	inactive
33	GNAI3	-1.79	active
34	GNAI3	-1.31	inactive
35	GNAI3	-1.58	active
36	GNAI3	-1.32	inactive
37	CEACAM18	-1.82	active
38	CEACAM18	-1.48	inactive
39	CEACAM18	-1.96	active
40	CEACAM18	-1.87	active
41	FERRY3		inactive
42	FERRY3	-0.22	inactive
43	FERRY3	-0.43	inactive
44	FERRY3	-0.72	inactive
45	EIF4A2	2.93	active
46	EIF4A2	3.84	active
47	EIF4A2	1.77	inactive
48	EIF4A2	1.57	inactive
49	THADA	0.64	inactive
50	THADA	0.84	inactive
51	THADA	0.24	inactive
52	THADA	-1.1	inactive
53	LYPLA2	-1.11	inactive
54	LYPLA2	-0.63	inactive
55	LYPLA2	-0.58	inactive
56	LYPLA2	-0.28	inactive
57	PIGC	1.72	inactive
58	PIGC	1.09	inactive
59	PIGC	1.32	inactive
60	PIGC	1.77	inactive
61	HDAC9	0.32	inactive
62	HDAC9	0.97	inactive
63	HDAC9	-0.01	inactive
64	HDAC9	1.37	inactive
65	SNX19	0.95	inactive
66	SNX19	2.02	inactive
67	SNX19	1.5	inactive
68	SNX19	2.5	inactive
69	MIF4GD	-0.01	inactive
70	MIF4GD	0.31	inactive
71	MIF4GD	-0.24	inactive
72	MIF4GD	0.6	inactive
73	OSER1	1.05	inactive
74	OSER1	0.65	inactive
75	OSER1	0.16	inactive
76	OSER1	1.11	inactive
77	ZBTB5	-0.86	inactive
78	ZBTB5	-0.11	inactive
79	ZBTB5	-1.04	inactive
80	ZBTB5	-1.03	inactive
81	LIM2	-1.66	active
82	LIM2	0.87	inactive
83	LIM2	-0.79	inactive
84	LIM2	-0.33	inactive
85	GTF3C6	-0.9	inactive
86	GTF3C6	-0.44	inactive
87	GTF3C6	-1.01	inactive
88	GTF3C6	-1	inactive
89	UBE2H	-1.79	active
90	UBE2H	-0.56	inactive
91	UBE2H	-0.31	inactive
92	UBE2H	-0.18	inactive
93	TRMT5	-0.1	inactive
94	TRMT5	-0.22	inactive
95	TRMT5	-0.58	inactive
96	TRMT5	0.44	inactive
97	PTH2R	-0.71	inactive
98	PTH2R	0.06	inactive
99	PTH2R	-0.29	inactive
100	PTH2R	0.35	inactive
101	TAS2R40	0.48	inactive
102	TAS2R40	2.4	inactive
103	TAS2R40	-0.72	inactive
104	TAS2R40	-0.76	inactive
105	MGST3	-0.55	inactive
106	MGST3	1.43	inactive
107	MGST3	1.21	inactive
108	MGST3	1.81	inactive
109	UGT1A7	-0.25	inactive
110	UGT1A7	-0.12	inactive
111	UGT1A7	0.08	inactive
112	UGT1A7	-0.43	inactive

Reformatted: results already given.
Gene,TNF reporter robust z-score,Call
HDAC9,-0.01,inactive
HDAC9,1.37,inactive
SNX19,0.95,inactive
SNX19,2.02,inactive
SNX19,1.5,inactive
SNX19,2.5,inactive
MIF4GD,-0.01,inactive
